The results are deposited in PubChem (AID1508623; NCATS, 2021).

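Firefly luciferase light from HEK293 cells carrying a huntingtin (HTT) promoter reporter, read after 24 hours of compound exposure, giving single-concentration activity change. Percent change in reporter signal versus vehicle (0%) down to no light (-100%); more negative values mean stronger inhibition of promoter activity.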

Values are in %. Common to all entries: at 57.5 µM (top of the series). Only part of the assay is listed here, not a random draw.

compound,activity change (%)
COc1ccc(NC(=O)c2cc3c(=O)n(Cc4ccco4)ccc3nc2C)cc1,-37.69
Cc1ccc(C(CC(=O)NCC2(c3ccccc3)CCCC2)c2ccccc2)c(O)c1 (stereo not drawn),-71.07
COc1cccc(-c2nc(SCc3cccc(Br)c3)n3[nH]c(=O)cc3n2)c1,-14.53
CCOC(=O)c1c(NC(=O)C(C)Oc2ccccc2F)sc(C(C)=O)c1C (stereo not drawn),-16.94
Cc1nc2scc(C)n2c(=O)c1S(=O)(=O)Nc1cccc(O)c1,-19.13
Cc1cc(C)cc(NC2=C(c3ccccc3)C(=O)c3ccccc32)c1,-51.81
O=C(NCc1ccccc1)c1cc(-c2cccc(Cl)c2)on1,27.92
Cc1ccc(-c2nnc(Nc3cccc(O)c3)c3ccccc23)cc1S(=O)(=O)N1CCCCC1,-39.98
CCc1ccc(NC(=O)CC2C(=O)N(c3cccc(C)c3)C(=O)N2Cc2cccs2)cc1 (stereo not drawn),-35.78
COC(=O)c1cc2c(cc1NC(=O)c1cnn(-c3ccc(C)cc3)c1-n1cccc1)OCO2,-5.343
Cc1nc2cccnc2n1C1CCN(S(=O)(=O)c2ccc(Cl)cc2)CC1,-24.41
CCOC(=O)c1cccc(NC(=O)CC2C(=O)N(c3ccccc3)C(=O)N2Cc2ccco2)c1 (stereo not drawn),-28.31
CCc1nn(CC(=O)NCc2ccco2)c(=O)c2cc3c(OC)cccc3n12,-5.019
COC(=O)c1ccc(NC(=O)CC2C(=O)N(c3ccc(Cl)cc3)C(=O)N2Cc2ccco2)cc1 (stereo not drawn),-28.86
CCCOc1ccc(CNC(=O)c2cc3ccccn3n2)cc1,17.51
CCOC(=O)c1c(-c2ccc(C)cc2)csc1NC(=O)c1cc(-c2ccc(C)c(F)c2)on1,-5.309
COc1ccc(C2c3cc(OC)c(OC)cc3CC(=O)N2c2ccc(C)c(F)c2)cc1 (stereo not drawn),-43.6
COc1ccc(-c2cc(C(=O)Nc3ccc(C#N)cc3)no2)cc1,-18.11
COc1ccc(NC(=O)c2c(C)oc3ccc(O)c(CN4CCC(C)CC4)c23)cc1,-31.49
COc1cc2c(-c3cccc(Cl)c3)nc3c(c(C)nn3-c3ccccc3)c2cc1OC,-10.76
COc1ccc(C)cc1S(=O)(=O)Nc1cccc(-c2ccc(N3CCC(C)CC3)nn2)c1,14.39
Cc1c(C)c2cc3c(c(C)c2oc1=O)OCN(CCc1ccccc1)C3,1.148
Cc1c(NC(=O)Nc2ccc(Br)cc2F)sc2nc3n(c(=O)c12)CCC(C)CC3 (stereo not drawn),-7.042
CC1CCCc2sc3nc(SCC(=O)c4ccc(Br)cc4)nc(N)c3c21 (stereo not drawn),-31.43
CC(C)Oc1cccc(NC(=O)C2CCN(S(=O)(=O)Cc3ccccc3)CC2)c1,-22.06
CCc1nn2c(=O)c(S(=O)(=O)Nc3ccc(OC)c(Cl)c3)c(C)nc2s1,-41.31
Cc1ccc(NC(=O)CSc2nc(-c3ccco3)nc3cc(=O)[nH]n23)cc1,-17.43
COc1ccc(CNC(=O)c2cc3ccccn3n2)cc1OC,-26
CCCOc1ccc(NC(=O)CC2C(=O)N(c3cccc(C)c3)C(=O)N2CCc2ccncc2)cc1 (stereo not drawn),-31.64
Cc1cc(C)cc(NC(c2cccc(Cl)c2)c2nnc(-c3ccccc3)o2)c1 (stereo not drawn),-35.07
COc1ccc(NC(=O)C(Cc2c[nH]c3ccccc23)NC(=O)OC(C)(C)C)cc1 (stereo not drawn),-14.96
O=C(CSc1nnc(COc2ccc(Cl)cc2)o1)Nc1ccccc1,-17.32
COc1ccc2c(c1)cc1c(=O)n(CC(=O)NC(C)CCc3ccccc3)nc(C)n12 (stereo not drawn),-12.8
COc1ccccc1OCCCSc1nc(-c2ccc(C(C)(C)C)cc2)nc2cc(=O)[nH]n12,-16.25
COc1ccccc1-c1cc(C(=O)N2CCN(c3ccccc3)CC2)no1,-7.434
COc1ccc(C(CC(=O)NCc2ccccc2)N2Cc3ccccc3C2=O)cc1 (stereo not drawn),-24.81
COc1ccc(C2=C(N3CCN(c4cccc(C)c4)C(C)C3)c3ccccc3C2=O)cc1 (stereo not drawn),10.61
COC(=O)c1ccc(NC(=O)CC2C(=O)N(c3cccc(C)c3)C(=O)N2Cc2ccco2)cc1 (stereo not drawn),-24.84
Cc1nc2ccn(Cc3ccco3)c(=O)c2cc1C(=O)NCc1ccccc1,-39.6
COc1ccc(S(=O)(=O)Nc2cccc(-c3ccc(N4CCCCC4)nn3)c2)cc1F,20.64
COc1cc2c(cc1OC)C(c1ccc(Cl)cc1)N(c1cccc(C#N)c1)C(=O)C2 (stereo not drawn),-35.47
COc1ccc(CNC(=O)CCc2c(C)nn(-c3ccc(N4CCCC4)nn3)c2C)c(OC)c1,-13.34
O=C1C(=O)N(C2CCN(S(=O)(=O)c3ccc(F)cc3)CC2)CCN1Cc1ccccc1,-7.747
Cc1coc2cc3oc(=O)c(CCC(=O)NCc4ccc(Cl)cc4)c(C)c3cc12,-46.61
Cc1coc2cc3oc(=O)c(CCC(=O)NCc4ccccc4Cl)c(C)c3cc12,-8.756
Cc1nc2scc(C)n2c(=O)c1S(=O)(=O)NCc1ccccc1Cl,-8.428
CCOC(=O)c1c(N)n(-c2cccc(C)c2C)c2nc3ccccc3nc12,-13.89
NC(=O)c1ccc(NC(=O)C2CCN(S(=O)(=O)Cc3ccccc3)CC2)cc1,-6.709
COc1ccccc1NC(=O)CCN1CCC(C(N)=O)CC1,-21.4
CCOc1cccc(C(=O)Nc2ccc(-c3nc4cc(C)cc(C)c4o3)cc2)c1,-6.562
CCCOc1ccc(C2C(=O)N(C3CCCCCC3)CC(=O)N2C(C)C)cc1OC (stereo not drawn),-12.35
CCCCOc1ccc(S(=O)(=O)Nc2ccc(-c3ccc(N4CCCCCC4)nn3)cc2)cc1,-13.29
COc1ccc(-c2nnc(Nc3ccc(OCC(N)=O)cc3)c3ccccc23)cc1,-31.88
O=C(Nc1cc(C(F)(F)F)ccc1Cl)c1noc2c1CCCCC2,-27.7
Cc1cc(C)cc(S(=O)(=O)Nc2cccc(-c3ccc(N4CCOCC4)nn3)c2)c1,-5.85
O=C(Nc1cccnc1Cl)c1cc(-c2cccc(Cl)c2)on1,-5.697
Cc1cc(C)c(OCCOCCn2c(-c3ccc(Cl)cc3)nc3ccccc3c2=O)c(C)c1,18.28
COc1cc(-c2nnc(SCCOc3ccc(C)c(Cl)c3)o2)cc(OC)c1OC,-9.264
COc1ccc(C2c3cc(OC)c(OC)cc3CC(=O)N2c2cccc(C#N)c2)cc1 (stereo not drawn),-13.07
Cc1ccc(NS(=O)(=O)c2ccc3c(c2)CC(C)N3C(=O)C2CCC2)cc1Cl (stereo not drawn),-96.16
CCOC(=O)c1c(-c2ccccc2)csc1NC(=O)c1cc(-c2ccc(C)c(F)c2)on1,-7.602
CCc1nn(CC(=O)NCCCc2ccccc2)c(=O)c2cc3cc(F)ccc3n12,-19.15
COc1cc(C2C(=O)N(C3CCCCCC3)CC(=O)N2CCc2ccccc2)ccc1OC(C)C (stereo not drawn),-9.614
O=C(C1CCN(S(=O)(=O)Cc2ccccc2)CC1)N1CCN(c2ccccc2)CC1,-15.37
CC1CCc2c(sc(NC(=O)c3cc(-c4ccc(Br)cc4)on3)c2C(N)=O)C1 (stereo not drawn),7.401
Cc1ccc(CNS(=O)(=O)c2c(C)nc3scc(C)n3c2=O)cc1,-0.3172
COc1ccccc1CN1C(=O)CN(C2CCCCCC2)C(=O)C1c1ccc(C)cc1 (stereo not drawn),-13.85
CNC(=O)c1cnc2sc(N3CCC(C)CC3)nn2c1=O,38.16
COc1cc2c(-c3ccccc3C)nc3c(c(C)nn3-c3ccccc3)c2cc1OC,-15.27
Cc1ccc(S(=O)(=O)Nc2cc(Cl)c3oc4c(c3c2)C(=O)CC(C)(C)C4)cc1,-19.4
Cc1nc2ccn(Cc3cccs3)c(=O)c2cc1C(=O)NCc1ccc(Cl)cc1,-44.61
Cc1ccc(NC(=O)/C=C/c2ccc(C)o2)c(C)c1,3.922
O=C(NCCc1nc2ccccc2n1Cc1c(F)cccc1Cl)c1ccco1,-54.97
COC(=O)CN1C(=O)CSc2ccc(S(=O)(=O)N3CCOCC3)cc21,-5.444
COC(=O)Cc1c(C)c2cc3c(c(C)c2oc1=O)OCN(CCc1ccc(OC)cc1)C3,-30.73
O=C(CSc1nc(-c2cccs2)nc2cc(=O)[nH]n12)Nc1ccc(F)cc1,-6.878
COc1ccc(-c2nc3ccccc3s2)cc1NC(=O)c1cc(OC)c(OC)c(OC)c1,58.88
COc1ccc(N2CCN(C(=O)COc3ccccc3C#N)CC2)cc1,-12.75

9 of the entries, repeated:

compound	activity change (%)
COc1ccc(C2c3cc(OC)c(OC)cc3CC(=O)N2c2cccc(C#N)c2)cc1 (stereo not drawn)	-13.07
Cc1ccc(NS(=O)(=O)c2ccc3c(c2)CC(C)N3C(=O)C2CCC2)cc1Cl (stereo not drawn)	-96.16
O=C(Nc1cc(C(F)(F)F)ccc1Cl)c1noc2c1CCCCC2	-27.7
COc1cc2c(-c3cccc(Cl)c3)nc3c(c(C)nn3-c3ccccc3)c2cc1OC	-10.76
COc1ccc(CNC(=O)CCc2c(C)nn(-c3ccc(N4CCCC4)nn3)c2C)c(OC)c1	-13.34
CCOC(=O)c1c(-c2ccc(C)cc2)csc1NC(=O)c1cc(-c2ccc(C)c(F)c2)on1	-5.309
CNC(=O)c1cnc2sc(N3CCC(C)CC3)nn2c1=O	38.16
CC1CCCc2sc3nc(SCC(=O)c4ccc(Br)cc4)nc(N)c3c21 (stereo not drawn)	-31.43
COc1ccccc1CN1C(=O)CN(C2CCCCCC2)C(=O)C1c1ccc(C)cc1 (stereo not drawn)	-13.85